# Source: PubChem BioAssay AID2685 (National Center for Advancing Translational Sciences (NCATS), 2010)
# The list shows a part of the results. Shown are side measurements of this screen, not its main read-out; they come without a call. Most of these compounds were active or inconclusive in the main read-out, so they are no random draw. Potencies come from curve fits of mixed quality, noted in brackets.
# Test: qHTS Assay for Lipid Storage Modulators in Drosophila S3 Cells;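 on cell number change: cells counted by Cell Tracker Red CMTPX staining in the red channel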
# Settings: BODIPY lipid droplet fluorescence, 18-24 h; for cell number change: measured here: cell count max response, cells fed with added oleic acid
# In short: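 Drosophila S3 cells loaded with oleic acid (400 uM, as added) and compounds at several concentrations; lipid droplets imaged by 488-nm laser-scanning cytometry, 500–530 nm intensity and object ratio to cell channel. Percent activity normalized to 20 uM Triacsin C.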
# [1] = measured here: lipid fluorescence (Fed channel) AC50, cells fed with added oleic acid
# [2] = measured here: cell number channel AC50, cells fed with added oleic acid
SMILES,cell number change [%],AC50 [1],AC50 [2]
CCCCC(=O)NC(c1ccccc1Cl)c1ccc2cccnc2c1O (stereo unspecified),-24,"23.1 µM [falling, single point]",
Cc1nc(-c2cccc(Br)c2)ccc1C(=O)O,-23.3,,
Cc1ccn2c(C(=O)CSc3ccc(Cl)cc3Cl)c(C)nc2c1,19.7,"0.164 µM [rising, full curve, poor fit]",
CCN(CC)c1ccc(/C=C2\C(=N)N3N=C(CC(=O)N4CCOCC4)SC3=NC2=O)cc1,-13.9,"23.1 µM [falling, single point]",
COc1ccc(CCn2c(N)cc(=O)[nH]c2=O)cc1OC,-5.1,,
Cc1cc(C)cc(NC(=O)C(C)N2C(=O)c3ccccc3C2=O)c1 (stereo unspecified),-24.9,"4.11 µM [falling, single point]",
O=[N+]([O-])c1ccc(OCC2CC(c3ccccc3)=NO2)cc1 (stereo unspecified),31.6,,"13 µM [rising, single point]"
COc1ccc(S(=O)(=O)N2CCCc3ccccc32)cc1OC,-4.6,"1.46 µM [falling, full curve, poor fit]",
C=CCNC(=O)c1ccc(NC(=O)CC2SC(N3CCCC3)=NC2=O)cc1 (stereo unspecified),-1.81,,
Cc1cc2c(c(=O)n1CCN(C)C)C(c1ccc(Br)cc1)C(C#N)=C(N)O2 (stereo unspecified),16.7,,
Cc1ccc(C)c(N/N=C2\CCCNC2=O)c1,,,"0.731 µM [rising, single point]"
CCOC(=O)N1CCN(C(=O)Cn2c(C)cc3ccccc3c2=O)CC1,-10.4,,
O=C(c1ccc(Cn2c(=O)[nH]c3ccccc3c2=O)cc1)N1CCN(c2ccccc2)CC1,-30.4,"29.1 µM [falling, partial curve, poor fit]","18.4 µM [falling, partial curve]"
CCc1c(O)nc(N2CCN(Cc3ccccc3)CC2)[nH]c1=O,-2.16,"32.6 µM [falling, single point]",
Cc1cn(-c2cc(NC(=O)c3ccc(C)c(NC(=O)c4cccc(-c5cn[nH]c(=O)c5)c4)c3)cc(C(F)(F)F)c2)cn1,8.09,"18.4 µM [falling, single point]",
O=C(NCCCn1ccnc1)c1cc2c(ccc3ccccc32)o1,,,"6.51 µM [rising, partial curve, poor fit]"
CC(C)C(NC(=O)c1ccc(C(C)(C)C)cc1)C(=O)NCCc1ccccn1 (stereo unspecified),14.7,"3.26 µM [rising, partial curve, poor fit]",
Cc1cccc(C(=O)OCC(=O)c2c(C)[nH]c3ccccc23)c1O,25.7,"0.82 µM [rising, full curve, poor fit]",
Cc1onc(-c2ccccc2)c1C(=O)OCC(=O)NCc1ccc(F)cc1,,"6.51 µM [rising, single point]",
COc1ccc(OC)c(NC(=O)c2nnn(Cc3ccc(Br)cc3F)c2N)c1,,"6.51 µM [rising, single point]","0.206 µM [rising, full curve, poor fit]"
COc1ccccc1NCCC(=O)OCC(=O)Nc1cccc(S(=O)(=O)N(C)C)c1,-0.518,"32.6 µM [falling, single point]",

# Looked up above:
# CCN(CC)c1ccc(/C=C2\C(=N)N3N=C(CC(=O)N4CCOCC4)SC3=NC2=O)cc1 | cell number change [%]: -13.9
# CC(C)C(NC(=O)c1ccc(C(C)(C)C)cc1)C(=O)NCCc1ccccn1 (stereo unspecified) | AC50 [1]: 3.26 µM [rising, partial curve, poor fit]

# Going on with the list.

SMILES,cell number change [%],AC50 [1],AC50 [2]
COc1ccc(/C=C/C(=O)c2ccc(NS(=O)(=O)c3ccc(C)cc3)cc2)cc1O,0.246,"29.1 µM [falling, single point]",
Cc1cccc(C)c1NC(=O)CSc1nnc(C2CCCCC2)o1,17.5,,
Clc1cccc(-c2noc3ncnc(Nc4ccc5c(c4)OCO5)c23)c1,0.898,,
CC(=O)N(Cc1ccccc1)c1ccccc1C(=O)O,,"16.4 µM [falling, partial curve, poor fit]",
CCC(=O)NCCc1nc2cc(NC(=O)c3cccc([N+](=O)[O-])c3)ccc2n1C,68.3,,"25.9 µM [rising, single point]"
CC(C)OC(=O)CN1C(=O)S/C(=C/c2ccc(N3CCCCC3)o2)C1=O,16.1,,
Clc1ccc(CSc2nncn2-c2ccc3c(c2)OCCO3)cc1,17.3,"20.6 µM [rising, partial curve, poor fit]",
Cc1ccc(CNC(=O)C2CCC(CNS(=O)(=O)c3cccs3)CC2)cc1 (stereo unspecified),141,,"25.9 µM [rising, single point]"
O=C(O)CCC(=O)N1N=C(c2ccccc2)CC1c1cccs1 (stereo unspecified),10.9,,
CCS(=O)(=O)N1Cc2ccccc2CC1C(=O)Nc1nc2c(C)cccc2s1 (stereo unspecified),,"29.1 µM [rising, single point]",
C=CCOc1ccc(/C(O)=C2\C(=O)C(=O)N(CCCOC)C2c2ccncc2)cc1 (stereo unspecified),-20.1,,"0.13 µM [falling, full curve, poor fit]"
CCN1CCc2c(sc(NC(=O)c3ccc(S(=O)(=O)N(C)CC4CCCO4)cc3)c2C(N)=O)C1 (stereo unspecified),,"3.26 µM [falling, full curve, poor fit]",
CCOC(=O)c1ccc(NC(=O)NCc2ccccc2OC)cc1,-0.205,,
CNC(=O)c1snnc1-c1ccccc1,-12.6,"1.3 µM [falling, partial curve]","0.411 µM [falling, full curve]"
O=C1CN(C(=O)COC(=O)c2ccc(N3CCCCCC3)c([N+](=O)[O-])c2)c2ccccc2N1,7.97,"6.51 µM [falling, single point]","6.51 µM [falling, single point]"
O=C(CSc1nnc(-c2ccc(Br)cc2)o1)N1CCN(C(=O)c2ccco2)CC1,-28.5,"0.326 µM [rising, partial curve, poor fit]",
O=C(N/N=C/c1cccs1)c1ccc2ncccc2c1,,,"0.0206 µM [rising, full curve, poor fit]"
CCn1cc(C(=O)NCCC2=CCCCC2)c(=O)c2cc(S(=O)(=O)N(C)C)ccc21,-24.3,"18.4 µM [falling, single point]",
CC12CCC(C(=O)Nc3cc(Cl)ccc3Cl)(C(Br)C1=O)C2(C)C (stereo unspecified),31.7,,"14.6 µM [rising, partial curve, poor fit]"
CCN(C(=O)CSc1ncccn1)C1CCS(=O)(=O)C1 (stereo unspecified),31.2,"29.1 µM [falling, single point]","29.1 µM [rising, single point]"
CCN=c1scc(-c2ccccc2)n1/N=C/c1ccccn1,-3.33,"1.46 µM [rising, partial curve]",

SMILES,cell number change [%],AC50 [1],AC50 [2]
CCOC(=O)N1CCN(Cc2nc3c(c(=O)n(C)c(=O)n3C)n2Cc2ccccc2C)CC1,5.62,"2.91 µM [rising, full curve, poor fit]","3.26 µM [rising, single point]"
Cc1noc(C)c1CSc1nnc2sc3ccccc3n12,4.91,"14.6 µM [rising, partial curve]",
COC(CNC(=O)c1ccc2c(=O)n(Cc3ccc(Cl)cc3)c(=S)[nH]c2c1)OC,-51.9,"20.6 µM [falling, single point]","32.6 µM [falling, partial curve]"
CCCn1c(NCc2ccco2)nc2c1c(=O)n(C)c(=O)n2C,-25.5,"18.4 µM [falling, single point]",
CC1=C(C(N)=O)C(c2ccc(Br)cc2)n2nc(CCCO)nc2N1 (stereo unspecified),-16.1,"0.164 µM [falling, full curve, poor fit]",
CC(C)c1cc(C(N)=O)c(NC(=O)c2cccc(COc3ccc(Br)cc3)c2)s1,-8.99,"4.11 µM [rising, partial curve]","0.184 µM [rising, partial curve]"
CCOc1ccc2[nH]c(=O)c(CN(Cc3ccco3)C(=O)c3cccc(F)c3)cc2c1,,"5.17 µM [rising, single point]","2.59 µM [rising, single point]"
COc1ccc(-c2nn[nH]n2)cc1OC,-44.9,,"29.1 µM [falling, single point]"
COc1ccc(C2(C)NC(=O)N(CC(=O)NC3(C#N)CCCCC3)C2=O)cc1 (stereo unspecified),17.9,"0.326 µM [rising, full curve]",
Cc1ccc(NC(=O)Nc2ccc3c(c2)CCC3)cc1,27.5,"29.1 µM [rising, partial curve, poor fit]",
CC(=O)NN1C(=O)c2ccccc2NC1c1ccc(N(C)C)cc1 (stereo unspecified),14.8,"29.1 µM [rising, single point]",
Nc1nc(-c2cccnc2)nn1C(=O)COc1ccccc1,,,"6.51 µM [rising, single point]"
COc1ccc([N+](=O)[O-])cc1NS(=O)(=O)c1ccccc1,3.52,"1.16 µM [rising, partial curve]","0.164 µM [rising, full curve, poor fit]"
CCn1c(=O)n(-c2ccc(Cl)cc2)c(=O)c2c3c(sc21)COC(C)(C)C3,17.2,,
Cc1cc(C(=O)NNC(=O)/C=C/c2ccc(F)cc2)c(C)o1,0.262,"0.00517 µM [rising, full curve, poor fit]",
COC(=O)c1sccc1NC(=O)Nc1cccc(C)c1,10.8,"3.66 µM [rising, partial curve, poor fit]",
CCOc1ccc(C(C)NC(=O)c2cc(=O)[nH]c3ccccc23)cc1OCC (stereo unspecified),,"0.00461 µM [falling, full curve]",
CC1CCN(C(=O)c2[nH]cnc2C(=O)Nc2ccc(Cl)cc2)CC1,-42.6,,"3.66 µM [falling, single point]"
Cc1ccc(-c2nn(-c3ccc(F)cc3)cc2C(=O)NCC2CCCO2)cc1 (stereo unspecified),-37.3,"1.46 µM [falling, full curve, poor fit]","0.82 µM [falling, full curve, poor fit]"

# Filtered by structure, those above with a COOH group.
SMILES,cell number change [%],AC50 [1],AC50 [2]
Cc1nc(-c2cccc(Br)c2)ccc1C(=O)O,-23.3,,
CC(=O)N(Cc1ccccc1)c1ccccc1C(=O)O,,"16.4 µM [falling, partial curve, poor fit]",
O=C(O)CCC(=O)N1N=C(c2ccccc2)CC1c1cccs1 (stereo unspecified),10.9,,
